Experimental data taken from PubChem BioAssay AID330 (DTP/NCI, 2004).
The list does not hold the whole screen: it gathers tests that were run many times, whatever their T/C, doses with no T/C, and many T/C values between a quarter and a half above the control. Further doses and runs are listed elsewhere. T/C gives the treated animals as a percentage of the vehicle group. Some entries give survivors of the animals treated and no T/C: the source holds a T/C of zero for them, seemingly a mark for toxic or unscored doses. Some doses without a T/C left all or most animals alive at the check, yet need not have been tolerated: the source hardly ever lists a survival T/C far under the control, and the zero likely stands for such cases as well. Counts of survivors are from the toxicity check (mostly the fifth day) where no day follows; animals may have died later. Schedules are NCI's codes, read here as Q, the interval in days (D) or hours (H), X, the number of doses. Brackets with × say how often a value occurs here. Some entries were tested several times; the values are given in rising order. Where survival is the endpoint, the PubChem record calls one and a half times the control and up active, and a quarter to a half above the control has no call in these data; cut-offs in other NCI protocols can differ. Some T/C values carry the count of animals alive at the toxicity check (mostly the fifth day); where none is given, no animal had died by that day.

Tested on: P388 leukemia ip, CD2F1 mice, survival T/C
Experiment: NCI In Vivo Anticancer Drug Screen. Data for tumor model P388 Leukemia (intraperitoneal) in CD2F1 (CDF1) mice
Settings: T/C endpoint: median survival time, higher T/C = longer survival
[1] = dose: 4.17 mg/kg/injection, schedule: Q03HX015 (ip), vehicle: DMSO
[2] = dose: 8.34 mg/kg/injection, schedule: Q03HX015 (ip), vehicle: DMSO
[3] = dose: 16.67 mg/kg/injection, schedule: Q03HX015 (ip), vehicle: DMSO
[4] = dose: 16.67 mg/kg/injection, schedule: Q03HX015 (ip), vehicle: Klucel (hydroxypropylcellulose) (HPC)
[5] = dose: 16.67 mg/kg/injection, schedule: Q03HX015 (ip), vehicle: alcohol
[6] = dose: 16.67 mg/kg/injection, schedule: Q03HX015 (ip), vehicle: other
[7] = dose: 16.67 mg/kg/injection, schedule: Q03HX015 (ip), vehicle: saline with Tween-80
[8] = dose: 25.0 mg/kg/injection, schedule: Q01DX005 (ip), vehicle: alcohol
[9] = dose: 33.33 mg/kg/injection, schedule: Q03HX015 (ip), vehicle: alcohol
[10] = dose: 33.33 mg/kg/injection, schedule: Q03HX015 (ip), vehicle: other
[11] = dose: 33.33 mg/kg/injection, schedule: Q03HX015 (ip), vehicle: saline with Tween-80
[12] = dose: 50.0 mg/kg/injection, schedule: Q01DX005 (ip), vehicle: alcohol
[13] = dose: 50.0 mg/kg/injection, schedule: Q01DX005 (ip), vehicle: other
[14] = dose: 100.0 mg/kg/injection, schedule: Q01DX005 (ip), vehicle: saline with Tween-80

## N=C(N)c1ccc(N=NNc2ccc(C(=N)N)cc2)cc1
dose: 1.05 mg/kg/injection, schedule: Q03HX015 (ip), vehicle: DMSO
  T/C: 98, 103, 115 [4 of 6 alive] (2×), 120 % of control [5 of 6 alive]
dose: 1.05 mg/kg/injection, schedule: Q03HX015 (ip), vehicle: Klucel (hydroxypropylcellulose) (HPC)
  T/C: 93, 94, 106 (2×), 108 % of control
dose: 1.05 mg/kg/injection, schedule: Q03HX015 (ip), vehicle: alcohol
  T/C: 91 (2×), 93, 102 (2×), 110 % of control
dose: 1.05 mg/kg/injection, schedule: Q03HX015 (ip), vehicle: other
  T/C: 93 [5 of 6 alive], 97, 99, 100 % of control (2×)
dose: 1.05 mg/kg/injection, schedule: Q03HX015 (ip), vehicle: saline with Tween-80
  T/C: 101, 103, 104, 105 % of control (2×)
dose: 2.09 mg/kg/injection, schedule: Q03HX015 (ip), vehicle: DMSO
  T/C: 99, 104, 112 [5 of 6 alive] (2×), 120 % of control [5 of 6 alive]
dose: 2.09 mg/kg/injection, schedule: Q03HX015 (ip), vehicle: Klucel (hydroxypropylcellulose) (HPC)
  T/C: 93, 98, 100, 105 % of control (2×)
dose: 2.09 mg/kg/injection, schedule: Q03HX015 (ip), vehicle: alcohol
  T/C: 92 (2×), 94, 108 (2×), 111 % of control
dose: 2.09 mg/kg/injection, schedule: Q03HX015 (ip), vehicle: other
  T/C: 98, 100, 102, 105 % of control [5 of 6 alive] (2×)
dose: 2.09 mg/kg/injection, schedule: Q03HX015 (ip), vehicle: saline with Tween-80
  T/C: 103 (2×), 107, 108 % of control (2×)
[1]
  T/C: 100 and 108 % of control
  survivor count: 2 of 6 and 3 of 6
dose: 4.17 mg/kg/injection, schedule: Q03HX015 (ip), vehicle: Klucel (hydroxypropylcellulose) (HPC)
  T/C: 91, 94, 100 (2×), 104 % of control
dose: 4.17 mg/kg/injection, schedule: Q03HX015 (ip), vehicle: alcohol
  T/C: 97 (2×), 100, 101, 102 % of control [5 of 6 alive] (2×)
dose: 4.17 mg/kg/injection, schedule: Q03HX015 (ip), vehicle: other
  T/C: 101, 103 [5 of 6 alive] (2×), 107, 108 % of control
dose: 4.17 mg/kg/injection, schedule: Q03HX015 (ip), vehicle: saline with Tween-80
  T/C: 100, 106, 107, 108 % of control (2×)
[2]
  T/C: 101 [5 of 6 alive] and 107 % of control
  survivor count: 0 of 6 and 2 of 6
dose: 8.34 mg/kg/injection, schedule: Q03HX015 (ip), vehicle: Klucel (hydroxypropylcellulose) (HPC)
  T/C: 93, 100, 103, 108 % of control (2×)
dose: 8.34 mg/kg/injection, schedule: Q03HX015 (ip), vehicle: alcohol
  T/C: 97 (2×), 100, 108, 112 % of control (2×)
dose: 8.34 mg/kg/injection, schedule: Q03HX015 (ip), vehicle: other
  T/C: 100, 102, 104, 113 % of control (2×)
dose: 8.34 mg/kg/injection, schedule: Q03HX015 (ip), vehicle: saline with Tween-80
  T/C: 100, 107, 109, 112 % of control (2×)
dose: 12.5 mg/kg/injection, schedule: Q01DX005 (ip), vehicle: saline with Tween-80
  T/C: 148 % of control
[3]
  T/C: 113 % of control
  survivor count: 0 of 6
[4]
  T/C: 88 [5 of 6 alive], 101, 114 % of control (2×)
  survivor count: 5 of 6
[5]
  T/C: 99 [5 of 6 alive] (2×), 110, 117 % of control [5 of 6 alive]
  survivor count: 4 of 6
[6]
  T/C: 92 [5 of 6 alive], 108 (2×), 109 % of control
  survivor count: 2 of 6
[7]
  T/C: 90 [4 of 6 alive], 107, 112 % of control (2×)
  survivor count: 5 of 6
dose: 25.0 mg/kg/injection, schedule: Q01DX005 (ip), vehicle: DMSO, evaluated on day 20
  T/C: 98 % of control
dose: 25.0 mg/kg/injection, schedule: Q01DX005 (ip), vehicle: DMSO, evaluated on day 30
  T/C: 95, 98, 110 [5 of 6 alive], 114 % of control
dose: 25.0 mg/kg/injection, schedule: Q01DX005 (ip), vehicle: Klucel (hydroxypropylcellulose) (HPC), evaluated on day 20
  T/C: 92 % of control
dose: 25.0 mg/kg/injection, schedule: Q01DX005 (ip), vehicle: Klucel (hydroxypropylcellulose) (HPC), evaluated on day 30
  T/C: 97 (2×), 101, 102 % of control
[8]
  T/C: 87, 92, 93, 98 % of control
  survivor count: 5 of 6
dose: 25.0 mg/kg/injection, schedule: Q01DX005 (ip), vehicle: other, evaluated on day 20
  T/C: 91 % of control
dose: 25.0 mg/kg/injection, schedule: Q01DX005 (ip), vehicle: other, evaluated on day 30
  T/C: 94, 95, 96, 103 % of control
dose: 25.0 mg/kg/injection, schedule: Q01DX005 (ip), vehicle: saline with Tween-80, evaluated on day 20
  T/C: 92 % of control
dose: 25.0 mg/kg/injection, schedule: Q01DX005 (ip), vehicle: saline with Tween-80, evaluated on day 30
  T/C: 97, 100, 101, 104, 109, 155 % of control
dose: 33.33 mg/kg/injection, schedule: Q03HX015 (ip), vehicle: DMSO
  survivor count: 0 of 6
dose: 33.33 mg/kg/injection, schedule: Q03HX015 (ip), vehicle: Klucel (hydroxypropylcellulose) (HPC)
  survivor count: 0 of 6, 3 of 6, 4 of 6
[9]
  T/C: 113 % of control
  survivor count: 0 of 6
[10]
  T/C: 123 % of control
  survivor count: 0 of 5 and 0 of 6
[11]
  T/C: 108 [4 of 6 alive] (2×) and 112 % of control
  survivor count: 0 of 6 and 1 of 6
dose: 50.0 mg/kg/injection, schedule: Q01DX005 (ip), vehicle: DMSO
  survivor count: 0 of 6, 1 of 6, 2 of 6, 3 of 6, 4 of 6
dose: 50.0 mg/kg/injection, schedule: Q01DX005 (ip), vehicle: Klucel (hydroxypropylcellulose) (HPC), evaluated on day 20
  T/C: 97 % of control
dose: 50.0 mg/kg/injection, schedule: Q01DX005 (ip), vehicle: Klucel (hydroxypropylcellulose) (HPC), evaluated on day 30
  T/C: 101, 103 [5 of 6 alive], 104 [5 of 6 alive], 111 % of control [4 of 6 alive]
[12]
  T/C: 94 and 114 % of control [5 of 6 alive]
  survivor count: 0 of 6, 3 of 6, 4 of 6
[13]
  T/C: 95 % of control [4 of 6 alive] (2×)
  survivor count: 0 of 6 and 1 of 6
dose: 50.0 mg/kg/injection, schedule: Q01DX005 (ip), vehicle: saline with Tween-80, evaluated on day 20
  T/C: 108 % of control
dose: 50.0 mg/kg/injection, schedule: Q01DX005 (ip), vehicle: saline with Tween-80, evaluated on day 30
  T/C: 97, 100 [5 of 6 alive], 102 [5 of 6 alive], 103, 106 [3 of 4 alive], 163, 177 % of control
dose: 100.0 mg/kg/injection, schedule: Q01DX005 (ip), vehicle: DMSO
  survivor count: 0 of 6 (2×)
dose: 100.0 mg/kg/injection, schedule: Q01DX005 (ip), vehicle: Klucel (hydroxypropylcellulose) (HPC)
  survivor count: 0 of 6 (2×) and 1 of 6
dose: 100.0 mg/kg/injection, schedule: Q01DX005 (ip), vehicle: Klucel + Tween-80
  survivor count: 0 of 10
dose: 100.0 mg/kg/injection, schedule: Q01DX005 (ip), vehicle: alcohol
  survivor count: 0 of 6 (2×)
dose: 100.0 mg/kg/injection, schedule: Q01DX005 (ip), vehicle: other
  survivor count: 0 of 6 (2×)
[14]
  T/C: 155 and 174 % of control
  survivor count: 0 of 6 (2×)
dose: 200.0 mg/kg/injection, schedule: Q01DX005 (ip), vehicle: DMSO
  survivor count: 0 of 6 (2×)
dose: 200.0 mg/kg/injection, schedule: Q01DX005 (ip), vehicle: Klucel (hydroxypropylcellulose) (HPC)
  survivor count: 0 of 6 (2×)
dose: 200.0 mg/kg/injection, schedule: Q01DX005 (ip), vehicle: Klucel + Tween-80
  survivor count: 0 of 10
dose: 200.0 mg/kg/injection, schedule: Q01DX005 (ip), vehicle: alcohol
  survivor count: 0 of 6 (2×)
dose: 200.0 mg/kg/injection, schedule: Q01DX005 (ip), vehicle: other
  survivor count: 0 of 6 (2×)
dose: 200.0 mg/kg/injection, schedule: Q01DX005 (ip), vehicle: saline with Tween-80
  survivor count: 0 of 6 (2×) and 6 of 6
